Single values of this set are uncertain.
B1: Rpb7; numbered along this chain (parent)
chain: MFFIKDLSLNITLHPSFFGPRMKQYLKTKLLEEVEGSCTGKFGYILCVLDYDNIDIQRGRILPTDGSAEFNVKYRAVVFKPFKGEVVDGTVVSCSQHGFEVQVGPMKVFVTKHLMPQDLTFNAGSNPPSYQSSEDVITIKSRIRVKIEGCISQVSSIHAIGSIKEDYLGAI

Legend:
[1] = variants of: B1; experiment: log2 fold change of mutant abundance, UV-irradiated vs unirradiated; higher = more UV resistant (enriched after UV); details: with Saccharomyces cerevisiae rad7Δ rad26Δ; UV dose (J/m2): 10; genetic background: rad7Δ rad26Δ rpb7Δ + plasmid RPB7 library; outgrowth: 10 cell divisions
[2] = variants of: B1; experiment: NOISeq theta enrichment statistic, UV-irradiated vs unirradiated (dimensionless); higher = more UV resistant (enriched after UV); details: with Saccharomyces cerevisiae rad7Δ rad26Δ; UV dose (J/m2): 10; genetic background: rad7Δ rad26Δ rpb7Δ + plasmid RPB7 library; outgrowth: 10 cell divisions

| Variant | log2 fold change of mutant abundance [1] | NOISeq theta enrichment statistic [2] |
| --- | --- | --- |
| MFFIKDLSLNITLHPSFFGPRMKQYLKTKLLEEVEGSCTGKFGYILCVLDYDNIDIQRGRILPTDGSAEFNVKYRAVVFKPFKGEVVDGTVVSCSQHGFEVQVGPMKVFVTKHLMPQDLTFNAGSNPPSYQSSEDVITQKSRIRVKIEGCISQVSSIHAIGSIKEDYLGAI [I139Q] | -0.0107 | -0.00954 |
| MFFIKDLSLNITLHPSFFGPRMKQYLKTKLLEEVEGSCTGKFGYILCVLDYDNIDIQRGRILPTDGSAEFNVKYRAVVFKPFKGEVVDGTVVSCSQHGFEVQVGPMKVFVTKHLMPQDLTFNAGSNPPSYQSSEDVITRKSRIRVKIEGCISQVSSIHAIGSIKEDYLGAI [I139R] | -0.0609 | -0.0877 |
| MFFIKDLSLNITLHPSFFGPRMKQYLKTKLLEEVEGSCTGKFGYILCVLDYDNIDIQRGRILPTDGSAEFNVKYRAVVFKPFKGEVVDGTVVSCSQHGFEVQVGPMKVFVTKHLMPQDLTFNAGSNPPSYQSSEDVITSKSRIRVKIEGCISQVSSIHAIGSIKEDYLGAI [I139S] | 1.1 | 0.52 |
| MFFIKDLSLNITLHPSFFGPRMKQYLKTKLLEEVEGSCTGKFGYILCVLDYDNIDIQRGRILPTDGSAEFNVKYRAVVFKPFKGEVVDGTVVSCSQHGFEVQVGPMKVFVTKHLMPQDLTFNAGSNPPSYQSSEDVITTKSRIRVKIEGCISQVSSIHAIGSIKEDYLGAI [I139T] | 0.017 | 0.0485 |
| MFFIKDLSLNITLHPSFFGPRMKQYLKTKLLEEVEGSCTGKFGYILCVLDYDNIDIQRGRILPTDGSAEFNVKYRAVVFKPFKGEVVDGTVVSCSQHGFEVQVGPMKVFVTKHLMPQDLTFNAGSNPPSYQSSEDVITVKSRIRVKIEGCISQVSSIHAIGSIKEDYLGAI [I139V] | 0.0155 | 0.0747 |
| MFFIKDLSLNITLHPSFFGPRMKQYLKTKLLEEVEGSCTGKFGYILCVLDYDNIDIQRGRILPTDGSAEFNVKYRAVVFKPFKGEVVDGTVVSCSQHGFEVQVGPMKVFVTKHLMPQDLTFNAGSNPPSYQSSEDVITIDSRIRVKIEGCISQVSSIHAIGSIKEDYLGAI [K140D] | 1.26 | 0.903 |
| MFFIKDLSLNITLHPSFFGPRMKQYLKTKLLEEVEGSCTGKFGYILCVLDYDNIDIQRGRILPTDGSAEFNVKYRAVVFKPFKGEVVDGTVVSCSQHGFEVQVGPMKVFVTKHLMPQDLTFNAGSNPPSYQSSEDVITIESRIRVKIEGCISQVSSIHAIGSIKEDYLGAI [K140E] | 0.227 | 0.809 |
| MFFIKDLSLNITLHPSFFGPRMKQYLKTKLLEEVEGSCTGKFGYILCVLDYDNIDIQRGRILPTDGSAEFNVKYRAVVFKPFKGEVVDGTVVSCSQHGFEVQVGPMKVFVTKHLMPQDLTFNAGSNPPSYQSSEDVITIGSRIRVKIEGCISQVSSIHAIGSIKEDYLGAI [K140G] | -0.472 | -0.171 |
| MFFIKDLSLNITLHPSFFGPRMKQYLKTKLLEEVEGSCTGKFGYILCVLDYDNIDIQRGRILPTDGSAEFNVKYRAVVFKPFKGEVVDGTVVSCSQHGFEVQVGPMKVFVTKHLMPQDLTFNAGSNPPSYQSSEDVITIHSRIRVKIEGCISQVSSIHAIGSIKEDYLGAI [K140H] | 0.211 | 0.153 |
| MFFIKDLSLNITLHPSFFGPRMKQYLKTKLLEEVEGSCTGKFGYILCVLDYDNIDIQRGRILPTDGSAEFNVKYRAVVFKPFKGEVVDGTVVSCSQHGFEVQVGPMKVFVTKHLMPQDLTFNAGSNPPSYQSSEDVITIISRIRVKIEGCISQVSSIHAIGSIKEDYLGAI [K140I] | 0.18 | 0.337 |
| MFFIKDLSLNITLHPSFFGPRMKQYLKTKLLEEVEGSCTGKFGYILCVLDYDNIDIQRGRILPTDGSAEFNVKYRAVVFKPFKGEVVDGTVVSCSQHGFEVQVGPMKVFVTKHLMPQDLTFNAGSNPPSYQSSEDVITILSRIRVKIEGCISQVSSIHAIGSIKEDYLGAI [K140L] | -0.657 | -0.352 |
| MFFIKDLSLNITLHPSFFGPRMKQYLKTKLLEEVEGSCTGKFGYILCVLDYDNIDIQRGRILPTDGSAEFNVKYRAVVFKPFKGEVVDGTVVSCSQHGFEVQVGPMKVFVTKHLMPQDLTFNAGSNPPSYQSSEDVITIMSRIRVKIEGCISQVSSIHAIGSIKEDYLGAI [K140M] | 0.0806 | 0.0404 |
| MFFIKDLSLNITLHPSFFGPRMKQYLKTKLLEEVEGSCTGKFGYILCVLDYDNIDIQRGRILPTDGSAEFNVKYRAVVFKPFKGEVVDGTVVSCSQHGFEVQVGPMKVFVTKHLMPQDLTFNAGSNPPSYQSSEDVITINSRIRVKIEGCISQVSSIHAIGSIKEDYLGAI [K140N] | 0.0883 | 0.529 |
| MFFIKDLSLNITLHPSFFGPRMKQYLKTKLLEEVEGSCTGKFGYILCVLDYDNIDIQRGRILPTDGSAEFNVKYRAVVFKPFKGEVVDGTVVSCSQHGFEVQVGPMKVFVTKHLMPQDLTFNAGSNPPSYQSSEDVITIQSRIRVKIEGCISQVSSIHAIGSIKEDYLGAI [K140Q] | -0.0505 | -0.0882 |
| MFFIKDLSLNITLHPSFFGPRMKQYLKTKLLEEVEGSCTGKFGYILCVLDYDNIDIQRGRILPTDGSAEFNVKYRAVVFKPFKGEVVDGTVVSCSQHGFEVQVGPMKVFVTKHLMPQDLTFNAGSNPPSYQSSEDVITIRSRIRVKIEGCISQVSSIHAIGSIKEDYLGAI [K140R] | -0.117 | -0.409 |
| MFFIKDLSLNITLHPSFFGPRMKQYLKTKLLEEVEGSCTGKFGYILCVLDYDNIDIQRGRILPTDGSAEFNVKYRAVVFKPFKGEVVDGTVVSCSQHGFEVQVGPMKVFVTKHLMPQDLTFNAGSNPPSYQSSEDVITISSRIRVKIEGCISQVSSIHAIGSIKEDYLGAI [K140S] | 0.491 | 0.431 |
| MFFIKDLSLNITLHPSFFGPRMKQYLKTKLLEEVEGSCTGKFGYILCVLDYDNIDIQRGRILPTDGSAEFNVKYRAVVFKPFKGEVVDGTVVSCSQHGFEVQVGPMKVFVTKHLMPQDLTFNAGSNPPSYQSSEDVITITSRIRVKIEGCISQVSSIHAIGSIKEDYLGAI [K140T] | -0.193 | -0.345 |

An excerpt from the list above:

| Variant | log2 fold change of mutant abundance [1] | NOISeq theta enrichment statistic [2] |
| --- | --- | --- |
| MFFIKDLSLNITLHPSFFGPRMKQYLKTKLLEEVEGSCTGKFGYILCVLDYDNIDIQRGRILPTDGSAEFNVKYRAVVFKPFKGEVVDGTVVSCSQHGFEVQVGPMKVFVTKHLMPQDLTFNAGSNPPSYQSSEDVITVKSRIRVKIEGCISQVSSIHAIGSIKEDYLGAI [I139V] | 0.0155 | 0.0747 |
| MFFIKDLSLNITLHPSFFGPRMKQYLKTKLLEEVEGSCTGKFGYILCVLDYDNIDIQRGRILPTDGSAEFNVKYRAVVFKPFKGEVVDGTVVSCSQHGFEVQVGPMKVFVTKHLMPQDLTFNAGSNPPSYQSSEDVITIDSRIRVKIEGCISQVSSIHAIGSIKEDYLGAI [K140D] | 1.26 | 0.903 |
| MFFIKDLSLNITLHPSFFGPRMKQYLKTKLLEEVEGSCTGKFGYILCVLDYDNIDIQRGRILPTDGSAEFNVKYRAVVFKPFKGEVVDGTVVSCSQHGFEVQVGPMKVFVTKHLMPQDLTFNAGSNPPSYQSSEDVITIESRIRVKIEGCISQVSSIHAIGSIKEDYLGAI [K140E] | 0.227 | 0.809 |
| MFFIKDLSLNITLHPSFFGPRMKQYLKTKLLEEVEGSCTGKFGYILCVLDYDNIDIQRGRILPTDGSAEFNVKYRAVVFKPFKGEVVDGTVVSCSQHGFEVQVGPMKVFVTKHLMPQDLTFNAGSNPPSYQSSEDVITIGSRIRVKIEGCISQVSSIHAIGSIKEDYLGAI [K140G] | -0.472 | -0.171 |
